In patent US5173481A, “Preparation of specifically substituted cyclodextrins” (The United States of America as represented by the …, priority 1990, dated 1992):
At least one read-out could not be matched to a standard name with certainty.

Experiment: Solubility in water
Conditions: basis of % not stated

C[C@@H](CO[C@H]1[C@H]2O[C@H]3[C@H](OS(=O)(=O)O)[C@@H](OS(=O)(=O)O)[C@@H](O[C@H]4[C@H](OS(=O)(=O)O)[C@@H](OS(=O)(=O)O)[C@@H](O[C@H]5[C@H](OS(=O)(=O)O)[C@@H](OS(=O)(=O)O)[C@@H](O[C@H]6[C@H](OS(=O)(=O)O)[C@@H](OS(=O)(=O)O)[C@@H](O[C@H]7[C@H](OS(=O)(=O)O)[C@@H](OS(=O)(=O)O)[C@@H](O[C@H]8[C@H](OS(=O)(=O)O)[C@@H](OS(=O)(=O)O)[C@@H](O[C@@H]([C@@H]1OS(=O)(=O)O)[C@@H](COS(=O)(=O)O)O2)O[C@@H]8COS(=O)(=O)O)O[C@@H]7COS(=O)(=O)O)O[C@@H]6COS(=O)(=O)O)O[C@@H]5COS(=O)(=O)O)O[C@@H]4COS(=O)(=O)O)O[C@@H]3COS(=O)(=O)O)OS(=O)(=O)O
solubility in water: > 50%
